Data from patent US20110081298A1, “RATIOMETRIC BIOLUMINESCENT SENSOR FOR IMAGINING OXIDATIVE STRESS” (priority 2009, published 2011).
At least one compound was matched to its structure with a doubt left.

Test system: HeLa-fR cells
Assay: RLuc8/fLuc bioluminescence and RLuc8:fLuc ratio in HeLa-fR cells (Dual-Glo)
Assay type: cell-based, human
Settings: inhibitor 1 hour before 10 μM STS for 24 hours; working concentrations of Table 7
Protocol: To induce cellular stress, HeLa cells were treated with Staurosporine (STS), hydrogen peroxide, or hypoxanthine and xanthine oxidase for 0 to 24 hours at concentrations indicated in Table 7. Stressed and unstressed cells were also incubated with inhibitors that target various intracellular protein degradation/modification pathways. The specific compounds/proteins that were utilized as inhibitors and the respective final working concentrations are also listed in Table 7. Inhibitors were added to cells 1-hr prior to adding inducers of cellular stress and left in the media for the duration of the treatment. Analogous controls were conducted in the absence of stress inducers.
To induce caspase dependent PCD, cells were treated with staurosporine (STS), Doxorubicin (DOX), or camptothecin (CPT) (Sigma, St. Louis, Mo.) in complete medium at indicated concentrations and time points. To induce caspase-independent PCD, cells were treated with sodium selenite (SSe, MP Biomedicals, Solon, Ohio) or resveratrol (Res, Enzo Life Sciences, Plymouth Meeting, Pa.) in complete medium at indicated concentrations and time points. In studies where allopurinol (Allo, MP Biomedicals) is used as an inhibitor, it was added at a final concentration of 100 μM to cells in complete medium for 1 hour prior to the addition of the death-inducing drugs and remained in the medium throughout the study. […]

CC(=O)N(O)CCCCCNC(=O)CCC(=O)N(O)CCCCCNC(=O)CCC(=O)N(O)CCCCCN [DFO, deferoxamine]
RLuc8:fLuc ratio of STS-treated cells with inhibitor/scavenger: did not reduce the Rluc8:fLuc ratio
